No constants are given. Whether binding was seen depends on the method and setting. Binding seen in cells or lysates may run through a third protein. Binding can be weak; no strength is given. For some of these results: Sequences can lack the tags named with a protein.
Assays:
Experiment in all cases: co-IP; HEK293T cells transiently co-transfected with FLAG-tagged podoplanin constructs and Ha-tagged CD44 isoforms; lysed after 24 h in IP buffer (50 mM Tris-HCl pH 7.5, 100 mM NaCl, 5 mM EDTA, 0.5% NP-40, 10% glycerol); about 750 μg lysate, anti-FLAG mAb and protein G Dynabeads overnight at 4 °C; blot with anti-Ha
[1] = molecular target: T1, podoplanin wild-type, FLAG-tagged (human) (human) (UniProt Q86YL7)
T1 sequence: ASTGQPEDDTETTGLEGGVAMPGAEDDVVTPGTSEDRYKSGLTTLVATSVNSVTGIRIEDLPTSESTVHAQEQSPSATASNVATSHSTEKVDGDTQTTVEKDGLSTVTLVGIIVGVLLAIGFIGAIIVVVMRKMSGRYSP

Chains of the proteins cited; added tags and fusions are not shown. Lines headed by an entry give the natural chain unless they say otherwise; changes in a name come on top. A line that says so, or that is headed by a name, gives the form on record, which may keep a tag or linker.
CD44 standard isoform, Ha-tagged (human) (P16070-12, form named): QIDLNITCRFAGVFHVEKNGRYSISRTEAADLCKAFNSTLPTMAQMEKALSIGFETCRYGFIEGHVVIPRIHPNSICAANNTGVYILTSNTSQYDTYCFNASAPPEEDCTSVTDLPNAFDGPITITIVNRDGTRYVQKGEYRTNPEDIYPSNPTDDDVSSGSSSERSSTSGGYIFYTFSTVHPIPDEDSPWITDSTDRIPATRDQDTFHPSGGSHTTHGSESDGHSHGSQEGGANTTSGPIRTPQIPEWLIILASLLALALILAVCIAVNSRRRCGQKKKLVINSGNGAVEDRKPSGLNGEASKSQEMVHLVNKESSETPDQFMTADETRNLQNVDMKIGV

[2] = molecular target: PDPN-I2, FLAG-tagged (island 2 glycosylation mutant) (human) (UniProt Q86YL7)
[3] = molecular target: PDPN-ΔPLAG3, FLAG-tagged (human) (UniProt Q86YL7)
[4] = molecular target: PDPN-I1, FLAG-tagged (island 1 glycosylation mutant) (human) (UniProt Q86YL7)

binding [1]	binding [2]	binding [3]	binding [4]	Substance
binds	–	–	–	CD44v6-10 isoform, Ha-tagged (human)
–	binds	binds	binds	CD44 standard isoform, Ha-tagged (human) (from UniProt P16070-12 21-361)

Reference: paper PMC7601683
